Measured values: patent publication US20200069813A1
These are yes or no findings as the source states them, for the method shown. Some results given as binding are weak or reduced against the parent protein; the word gives no strength.

Biological target: T1, rhodamine-conjugated CGY peptide (Rh-CGY)
T1 sequence (peptide, Rhodamine B conjugated at the N-terminal): CGYRPVHNIRGHWAPG
Assay: Co-assembly of 10 uM Rh-CGY with 5 uM FAM-GYR; NTA, electron microscopy; no disulfide bond (Western blot)

B1: FAM-GYR peptide (peptide)
peptide: GYRPVHNIRGHWAPG
modifications: FAM label (position not stated; by the name at the N-terminus)
In the case of B1, the binding is reported as “binds”.
